Measured values taken from the supplement of paper PMC10849652.
This is one part of the list. Residues, ends and D or L forms follow the SMILES beside them. *: point of attachment. Cbz = O=C(OCc1ccccc1)*

Chains of the proteins cited; added tags and fusions are not shown. Lines headed by an entry give the natural chain unless they say otherwise; changes in a name come on top.
UniProt P15531, whole entry, looked up: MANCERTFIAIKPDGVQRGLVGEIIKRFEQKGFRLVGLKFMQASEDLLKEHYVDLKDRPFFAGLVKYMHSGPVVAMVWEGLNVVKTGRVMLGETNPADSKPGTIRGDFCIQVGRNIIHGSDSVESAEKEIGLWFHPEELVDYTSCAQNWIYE
UniProt Q9UGY1: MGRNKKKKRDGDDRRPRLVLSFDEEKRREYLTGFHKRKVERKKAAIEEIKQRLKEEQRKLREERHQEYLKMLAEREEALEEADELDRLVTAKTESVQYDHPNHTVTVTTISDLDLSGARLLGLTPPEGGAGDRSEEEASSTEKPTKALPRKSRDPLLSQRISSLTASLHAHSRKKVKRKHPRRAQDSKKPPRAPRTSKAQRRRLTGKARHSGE
UniProt Q15155: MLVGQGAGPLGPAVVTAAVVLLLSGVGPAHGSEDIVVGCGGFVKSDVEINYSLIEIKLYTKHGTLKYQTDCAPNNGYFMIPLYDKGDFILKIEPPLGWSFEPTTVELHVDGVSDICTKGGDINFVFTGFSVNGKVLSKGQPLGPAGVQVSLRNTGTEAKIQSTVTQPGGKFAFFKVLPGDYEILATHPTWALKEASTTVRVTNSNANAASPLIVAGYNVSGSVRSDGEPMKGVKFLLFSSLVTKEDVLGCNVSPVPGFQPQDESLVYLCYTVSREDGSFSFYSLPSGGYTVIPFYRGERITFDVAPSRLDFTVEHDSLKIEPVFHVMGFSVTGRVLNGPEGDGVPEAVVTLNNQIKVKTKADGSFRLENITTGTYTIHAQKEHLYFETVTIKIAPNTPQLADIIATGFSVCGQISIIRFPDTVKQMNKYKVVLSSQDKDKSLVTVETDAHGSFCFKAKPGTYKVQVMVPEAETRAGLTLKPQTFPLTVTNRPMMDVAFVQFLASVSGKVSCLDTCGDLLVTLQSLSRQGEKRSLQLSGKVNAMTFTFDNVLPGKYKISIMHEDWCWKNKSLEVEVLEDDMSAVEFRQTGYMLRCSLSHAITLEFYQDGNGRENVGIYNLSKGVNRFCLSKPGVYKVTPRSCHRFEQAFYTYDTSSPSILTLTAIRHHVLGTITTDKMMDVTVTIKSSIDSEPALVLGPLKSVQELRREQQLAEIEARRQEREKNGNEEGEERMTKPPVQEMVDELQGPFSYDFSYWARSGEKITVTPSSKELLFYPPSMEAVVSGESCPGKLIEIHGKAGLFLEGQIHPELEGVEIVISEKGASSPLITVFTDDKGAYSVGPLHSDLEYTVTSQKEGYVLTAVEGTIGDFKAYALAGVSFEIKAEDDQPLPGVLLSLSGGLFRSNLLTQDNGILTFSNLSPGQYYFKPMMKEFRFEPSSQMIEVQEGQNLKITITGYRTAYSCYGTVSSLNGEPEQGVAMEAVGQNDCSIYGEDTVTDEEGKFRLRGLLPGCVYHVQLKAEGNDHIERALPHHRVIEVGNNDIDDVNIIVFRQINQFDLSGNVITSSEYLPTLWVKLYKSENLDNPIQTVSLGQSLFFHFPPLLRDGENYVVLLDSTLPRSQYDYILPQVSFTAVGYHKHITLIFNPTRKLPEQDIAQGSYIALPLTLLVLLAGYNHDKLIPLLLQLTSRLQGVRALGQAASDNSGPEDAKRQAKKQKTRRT
UniProt Q9BYT8, whole entry, looked up: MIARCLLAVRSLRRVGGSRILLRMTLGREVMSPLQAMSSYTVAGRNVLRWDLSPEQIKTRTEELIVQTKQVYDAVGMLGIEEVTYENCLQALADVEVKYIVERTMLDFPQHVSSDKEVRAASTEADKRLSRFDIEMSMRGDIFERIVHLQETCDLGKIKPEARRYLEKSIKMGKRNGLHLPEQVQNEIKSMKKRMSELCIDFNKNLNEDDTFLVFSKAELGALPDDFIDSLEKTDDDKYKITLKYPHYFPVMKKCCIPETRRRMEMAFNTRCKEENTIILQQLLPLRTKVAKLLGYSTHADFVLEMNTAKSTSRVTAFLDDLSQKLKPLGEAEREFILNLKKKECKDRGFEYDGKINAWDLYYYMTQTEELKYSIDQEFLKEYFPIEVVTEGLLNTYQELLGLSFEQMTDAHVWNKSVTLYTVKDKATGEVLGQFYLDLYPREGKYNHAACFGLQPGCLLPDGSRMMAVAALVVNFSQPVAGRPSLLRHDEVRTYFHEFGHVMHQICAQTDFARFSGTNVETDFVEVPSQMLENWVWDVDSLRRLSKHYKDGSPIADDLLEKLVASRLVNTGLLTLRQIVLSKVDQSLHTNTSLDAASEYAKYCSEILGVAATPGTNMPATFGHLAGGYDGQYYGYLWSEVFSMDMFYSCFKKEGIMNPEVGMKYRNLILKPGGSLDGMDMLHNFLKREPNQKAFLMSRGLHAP
UniProt O60361, whole entry, looked up: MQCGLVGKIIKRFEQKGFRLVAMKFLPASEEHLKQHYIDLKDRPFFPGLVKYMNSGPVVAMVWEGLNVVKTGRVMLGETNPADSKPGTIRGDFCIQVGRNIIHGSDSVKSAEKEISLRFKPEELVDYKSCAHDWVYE
UniProt P48681: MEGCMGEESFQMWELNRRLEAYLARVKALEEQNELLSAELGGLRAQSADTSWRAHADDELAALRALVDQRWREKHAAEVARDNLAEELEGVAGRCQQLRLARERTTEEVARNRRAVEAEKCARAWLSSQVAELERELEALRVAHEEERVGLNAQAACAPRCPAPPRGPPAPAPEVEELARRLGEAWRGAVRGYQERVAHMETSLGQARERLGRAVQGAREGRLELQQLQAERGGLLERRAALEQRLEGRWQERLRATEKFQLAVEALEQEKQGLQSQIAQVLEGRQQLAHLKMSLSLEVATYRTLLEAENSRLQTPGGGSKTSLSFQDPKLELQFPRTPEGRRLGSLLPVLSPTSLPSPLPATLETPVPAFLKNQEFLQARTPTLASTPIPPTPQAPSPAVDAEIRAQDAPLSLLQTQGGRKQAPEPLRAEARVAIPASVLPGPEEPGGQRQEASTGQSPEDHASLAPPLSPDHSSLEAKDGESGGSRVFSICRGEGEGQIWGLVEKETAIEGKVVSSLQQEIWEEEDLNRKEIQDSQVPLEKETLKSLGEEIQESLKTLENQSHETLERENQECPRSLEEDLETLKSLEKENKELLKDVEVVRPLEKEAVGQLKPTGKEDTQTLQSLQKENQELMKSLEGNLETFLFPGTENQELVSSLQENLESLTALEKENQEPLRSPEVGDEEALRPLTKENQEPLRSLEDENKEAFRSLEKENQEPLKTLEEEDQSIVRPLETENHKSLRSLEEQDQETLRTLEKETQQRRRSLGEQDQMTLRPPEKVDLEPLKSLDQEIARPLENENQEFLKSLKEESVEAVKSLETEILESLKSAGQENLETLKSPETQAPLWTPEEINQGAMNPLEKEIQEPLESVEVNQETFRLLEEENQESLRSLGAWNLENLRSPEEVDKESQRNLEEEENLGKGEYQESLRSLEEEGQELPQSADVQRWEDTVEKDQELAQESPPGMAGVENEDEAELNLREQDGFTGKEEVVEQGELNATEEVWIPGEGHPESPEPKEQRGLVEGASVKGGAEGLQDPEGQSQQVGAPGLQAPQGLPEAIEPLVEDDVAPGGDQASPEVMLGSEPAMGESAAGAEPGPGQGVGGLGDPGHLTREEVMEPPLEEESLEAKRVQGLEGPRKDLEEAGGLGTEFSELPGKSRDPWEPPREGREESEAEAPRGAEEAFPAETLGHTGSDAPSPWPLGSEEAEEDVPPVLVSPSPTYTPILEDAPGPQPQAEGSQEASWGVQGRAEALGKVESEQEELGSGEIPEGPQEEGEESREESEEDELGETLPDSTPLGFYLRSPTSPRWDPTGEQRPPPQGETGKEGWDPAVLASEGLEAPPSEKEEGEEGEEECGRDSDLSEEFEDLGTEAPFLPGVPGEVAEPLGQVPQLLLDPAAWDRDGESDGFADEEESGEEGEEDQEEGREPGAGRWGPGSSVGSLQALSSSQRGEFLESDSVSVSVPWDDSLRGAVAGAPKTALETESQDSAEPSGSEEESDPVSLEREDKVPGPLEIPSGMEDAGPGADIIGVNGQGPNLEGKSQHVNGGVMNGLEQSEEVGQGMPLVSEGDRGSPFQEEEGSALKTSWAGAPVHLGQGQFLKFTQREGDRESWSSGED
UniProt Q96TA1: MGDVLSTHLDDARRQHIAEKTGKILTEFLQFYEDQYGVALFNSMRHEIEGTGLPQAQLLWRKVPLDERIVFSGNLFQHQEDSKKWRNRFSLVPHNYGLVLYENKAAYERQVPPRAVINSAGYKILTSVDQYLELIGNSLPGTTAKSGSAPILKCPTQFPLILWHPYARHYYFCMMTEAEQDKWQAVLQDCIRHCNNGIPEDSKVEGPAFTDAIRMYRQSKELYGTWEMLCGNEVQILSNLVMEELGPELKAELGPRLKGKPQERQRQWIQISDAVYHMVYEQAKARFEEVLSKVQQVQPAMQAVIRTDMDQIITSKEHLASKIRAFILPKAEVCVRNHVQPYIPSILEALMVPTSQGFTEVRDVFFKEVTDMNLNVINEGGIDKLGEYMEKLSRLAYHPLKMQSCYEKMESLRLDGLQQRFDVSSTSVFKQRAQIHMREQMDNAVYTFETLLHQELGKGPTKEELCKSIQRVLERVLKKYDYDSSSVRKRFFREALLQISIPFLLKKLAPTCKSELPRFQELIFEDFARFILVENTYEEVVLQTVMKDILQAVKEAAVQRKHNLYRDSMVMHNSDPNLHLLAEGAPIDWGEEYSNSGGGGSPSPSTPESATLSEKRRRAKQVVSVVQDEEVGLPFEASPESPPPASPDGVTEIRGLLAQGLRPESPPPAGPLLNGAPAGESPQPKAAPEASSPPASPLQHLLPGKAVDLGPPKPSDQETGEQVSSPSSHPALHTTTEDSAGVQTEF
UniProt Q9Y2X3: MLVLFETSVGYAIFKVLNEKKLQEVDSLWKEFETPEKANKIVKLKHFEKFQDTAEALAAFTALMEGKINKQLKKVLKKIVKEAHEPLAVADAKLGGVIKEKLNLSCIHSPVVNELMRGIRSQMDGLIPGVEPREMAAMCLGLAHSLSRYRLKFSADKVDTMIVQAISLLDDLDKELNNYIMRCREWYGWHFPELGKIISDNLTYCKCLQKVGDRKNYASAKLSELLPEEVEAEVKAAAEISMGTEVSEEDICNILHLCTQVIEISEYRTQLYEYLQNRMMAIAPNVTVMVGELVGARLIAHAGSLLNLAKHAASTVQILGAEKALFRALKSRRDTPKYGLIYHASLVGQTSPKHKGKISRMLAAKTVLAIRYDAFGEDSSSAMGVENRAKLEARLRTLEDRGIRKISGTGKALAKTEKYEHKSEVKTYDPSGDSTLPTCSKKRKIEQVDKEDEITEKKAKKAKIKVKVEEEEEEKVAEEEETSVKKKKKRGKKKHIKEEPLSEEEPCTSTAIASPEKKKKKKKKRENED
UniProt O14524: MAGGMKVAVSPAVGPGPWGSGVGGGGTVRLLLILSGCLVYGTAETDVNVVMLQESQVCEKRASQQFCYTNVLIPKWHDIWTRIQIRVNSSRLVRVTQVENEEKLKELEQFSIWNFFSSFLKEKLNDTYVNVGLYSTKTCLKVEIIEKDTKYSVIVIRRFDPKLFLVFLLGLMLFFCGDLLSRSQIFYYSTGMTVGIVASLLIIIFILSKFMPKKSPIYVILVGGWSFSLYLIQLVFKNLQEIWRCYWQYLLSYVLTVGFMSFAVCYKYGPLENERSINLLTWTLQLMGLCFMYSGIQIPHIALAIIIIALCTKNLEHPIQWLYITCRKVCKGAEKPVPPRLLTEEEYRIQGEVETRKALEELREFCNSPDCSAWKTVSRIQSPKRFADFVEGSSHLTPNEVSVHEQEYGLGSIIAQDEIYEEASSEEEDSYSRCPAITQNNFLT
UniProt Q9BYG3: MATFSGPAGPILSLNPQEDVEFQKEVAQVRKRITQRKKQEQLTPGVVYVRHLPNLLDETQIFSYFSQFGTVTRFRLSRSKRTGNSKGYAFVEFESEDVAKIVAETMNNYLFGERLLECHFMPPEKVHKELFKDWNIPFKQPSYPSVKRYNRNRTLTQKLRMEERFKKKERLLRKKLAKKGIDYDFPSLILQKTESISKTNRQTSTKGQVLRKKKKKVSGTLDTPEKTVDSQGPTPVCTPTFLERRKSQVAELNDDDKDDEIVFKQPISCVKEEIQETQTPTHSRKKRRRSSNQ
UniProt Q9ULX3: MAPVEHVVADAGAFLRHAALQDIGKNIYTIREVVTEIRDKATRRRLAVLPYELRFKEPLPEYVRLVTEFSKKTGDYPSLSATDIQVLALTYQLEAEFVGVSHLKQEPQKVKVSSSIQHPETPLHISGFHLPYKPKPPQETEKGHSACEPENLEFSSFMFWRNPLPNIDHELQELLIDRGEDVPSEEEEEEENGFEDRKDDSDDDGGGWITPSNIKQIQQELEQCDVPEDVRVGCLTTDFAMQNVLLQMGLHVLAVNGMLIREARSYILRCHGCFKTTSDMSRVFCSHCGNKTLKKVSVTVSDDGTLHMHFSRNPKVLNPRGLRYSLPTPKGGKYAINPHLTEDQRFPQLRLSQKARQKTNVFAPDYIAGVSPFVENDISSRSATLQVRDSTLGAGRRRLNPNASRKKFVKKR

Assays:
Assay in all cases: log2 fold change, soluble protein after heating vs DMSO (PISA); higher = thermal stabilisation; K562 cells, 10 uM, 30 min; active = over 0.2 and 3.5 SD of the protein, either way, in both replicates (recomputed)
IRAK-1-4 Inhibitor I = compound: C1COCCN1CCN2C3=CC=CC=C3N=C2NC(=O)C4=CC(=CC=C4)[N+](=O)[O-] [IRAK-1-4 Inhibitor I]
Outline: (§1)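 K562 cells at 2×10^6 cells/mL were treated with 10 μM compound for 30 min. Aliquots were heated for 3 min across 48°C-58°C, pooled, and extracted in PBS with 0.5% NP-40 at 4°C; soluble protein was the supernatant after 21,000xg for 90 min. Soluble protein was quantified by TMTpro 16plex LC-MS/MS with channel sums equalised, and reported as log2 fold change in thermal stability against DMSO controls, with values from duplicates.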

ibrutinib = compound: C=CC(=O)N1CCC[C@@H](n2nc(-c3ccc(Oc4ccccc4)cc3)c3c(N)ncnc32)C1 [ibrutinib]
Outline: as §1

[1] = compound: CC(=O)c1cnc2ccc(-c3cc(Cl)c(O)c(Cl)c3)nc2c1N[C@H]1CC[C@H](CN(C)C)CC1
Outline: as §1

ralimetinib = compound: CC(C)(C)Cn1c(N)nc2ccc(-c3[nH]c(C(C)(C)C)nc3-c3ccc(F)cc3)nc21 [ralimetinib]
Outline: as §1

[2] = compound: CC(C)(O)CC(=O)NCCn1ccc2ncnc(Nc3ccc(Oc4cccc(C(F)(F)F)c4)c(Cl)c3)c21
Outline: as §1

[3] = compound: CC(C)C1=C2N=C(C=C(N2N=C1)NCC3=CC=CC=C3)NCCCCCCN
Outline: as §1

[4] = compound: CC(C)C[C@@H](C=O)NC(=O)[C@H](CC(C)C)NC(=O)[C@H](CC(C)C)NC(=O)OCc1ccccc1
Outline: as §1

pinometostat = compound: CC(C)N(C[C@H]1O[C@@H](n2cnc3c(N)ncnc32)[C@H](O)[C@@H]1O)[C@H]1C[C@@H](CCc2nc3cc(C(C)(C)C)ccc3[nH]2)C1 [pinometostat]
Outline: as §1

[5] = compound: CC1=C(C2=C(C=C1)C(=O)C3=CC=CC=C3N2CCCN)C
Outline: as §1

[6] = compound: CC1=C(C=C(C=C1)NC(=O)C2=CC(=CC=C2)C(C)(C)C#N)NC3=CC4=C(C=C3)N=CN(C4=O)C
Outline: as §1

[7] = compound: CC1=C(C=C(C=C1)NC(=O)C2=CC(=CC=C2)N(C)C)NC(=O)C3=CC=C(C=C3)O
Outline: as §1

[8] = compound: CC1=CC=C(C=C1)SC2=C3C=C(SC3=CN=C2)C(=O)N
Outline: as §1

[9] = compound: CC1=NC(=CC=C1)C2=C(N=C(N2)C(C)(C)C)C3=CC4=NC=CN=C4C=C3
Outline: as §1

Nexturastat A = compound: CCCCN(Cc1ccc(C(=O)NO)cc1)C(=O)Nc1ccccc1 [Nexturastat A]
Outline: as §1

vemurafenib = compound: CCCS(=O)(=O)Nc1ccc(F)c(C(=O)c2c[nH]c3ncc(-c4ccc(Cl)cc4)cc23)c1F [vemurafenib]
Outline: as §1

[10] = compound: CCCS(=O)(=O)Nc1ccc(F)c(C(=O)c2c[nH]c3ncc(Cl)cc23)c1F
Outline: as §1

[11] = compound: CCCc1cc(C)[nH]c(=O)c1CNC(=O)c1cc(-c2ccnc(N3CCN(C)CC3)c2)cc2c1cnn2C(C)C
Outline: as §1

givinostat = compound: CCN(CC)Cc1ccc2cc(COC(=O)Nc3ccc(C(=O)NO)cc3)ccc2c1 [givinostat]
Outline: as §1

barasertib = compound: CCN(CCCOc1ccc2c(Nc3cc(CC(=O)Nc4cccc(F)c4)[nH]n3)ncnc2c1)CCOP(=O)(O)O [barasertib]
Outline: as §1

[12] = compound: CC1=C(C(CC(=O)N1)C2=CC=C(C=C2)C(F)(F)F)C(=O)NC3=C(C=C4C(=C3)C=NN4)F
Outline: as §1

Measured: log2 fold change

NME1 isoform 2 (UniProt P15531)
inactive: IRAK-1-4 Inhibitor I 0.021 | ibrutinib 0.107 | [1] -0.007 | ralimetinib -0.035 | [2] 0.03 | [3] 0.041 | [4] 0.032 | pinometostat -0.017 | [5] 0.038 | [6] -0.054 | [7] 0.047 | [8] 0.029 | [9] -0.006 | Nexturastat A -0.067 | vemurafenib -0.003 | [10] -0.045 | [11] -0.092 | givinostat -0.07 | barasertib -0.108

NOL12 (UniProt Q9UGY1)
inactive: IRAK-1-4 Inhibitor I -0.131 | ibrutinib 0.053 | [1] 0.236 | ralimetinib 0.135 | [2] 0.219 | [3] 0.146 | [4] 0.095 | pinometostat 0.21 | [12] -0.027 | [5] -0.55 | [6] -0.025 | [7] -0.019 | [8] -0.023 | [9] -0.193 | Nexturastat A 0.348 | vemurafenib -0.087 | [10] -0.064 | [11] 0.149 | givinostat -0.031 | barasertib -0.134

NPLOC4 isoform 2 (UniProt Q8TAT6)
inactive: IRAK-1-4 Inhibitor I 0.04 | ibrutinib -0.01 | [1] -0.008 | ralimetinib -0.053 | [2] -0.028 | [3] 0.034 | [4] -0.063 | pinometostat -0.026 | [12] 0.003 | [5] 0.04 | [6] -0.032 | [7] 0.006 | [8] -0.018 | [9] 0.017 | Nexturastat A -0.027 | vemurafenib -0.022 | [10] 0.008 | [11] -0.016 | givinostat 0.034 | barasertib 0.017

NHEJ1 (UniProt Q9H9Q4)
inactive: IRAK-1-4 Inhibitor I 0.043 | ibrutinib -0.064 | [1] -0.021 | ralimetinib 0.017 | [2] -0.016 | [3] 0.007 | [4] 0.014 | pinometostat 0.032 | [12] -0.001 | [5] 0.095 | [6] -0.013 | [7] -0.055 | [8] 0.074 | [9] 0.066 | Nexturastat A -0.007 | vemurafenib -0.098 | [10] 0.201 | [11] -0.398 | givinostat 0.007 | barasertib -0.082

NFE2 (UniProt Q16621)
active: [5] -0.285
inactive: IRAK-1-4 Inhibitor I 0.053 | ibrutinib -0.039 | [1] 0.016 | ralimetinib -0.06 | [2] 0.01 | [3] -0.119 | [4] 0.184 | pinometostat -0.001 | [6] -0.09 | [7] 0.064 | [8] 0.017 | [9] 0.034 | Nexturastat A 0.044 | vemurafenib -0.087 | [10] 0.043 | [11] -0.009 | givinostat 0.087 | barasertib -0.003

NOMO1 (UniProt Q15155)
inactive: IRAK-1-4 Inhibitor I -0.046 | ibrutinib -0.107 | [1] 0.279 | ralimetinib 0.021 | [2] 0.054 | [3] -0.038 | [4] -0.016 | pinometostat 0.005 | [12] -0.002 | [5] 0.047 | [6] 0.114 | [7] -0.003 | [8] -0.023 | [9] 0.041 | Nexturastat A 0.029 | vemurafenib 0.186 | [10] -0.179 | givinostat 0.159 | barasertib -0.158

NLN (UniProt Q9BYT8)
inactive: IRAK-1-4 Inhibitor I 0.02 | ibrutinib 0.002 | [1] -0.014 | ralimetinib -0.025 | [2] -0.049 | [3] 0.061 | [4] -0.052 | pinometostat -0.043 | [12] -0.005 | [5] 0.05 | [6] -0.03 | [7] 0.005 | [8] -0.002 | [9] 0.016 | Nexturastat A 0.029 | vemurafenib -0.036 | [10] -0.009 | [11] -0.024 | givinostat 0.154 | barasertib -0.003

NME2P1 (UniProt O60361)
inactive: IRAK-1-4 Inhibitor I -0.019 | ibrutinib -0.18 | [1] -0.033 | ralimetinib 0.032 | [2] -0.024 | [3] -0.072 | [4] -0.135 | pinometostat 0.037 | [5] 0.031 | [6] 0.06 | [7] 0.017 | [8] 0.065 | [9] 0.004 | Nexturastat A -0.164 | vemurafenib 0.038 | [10] -0.043 | [11] -0.102 | givinostat 0.09 | barasertib 0.12

NES (UniProt P48681)
inactive: IRAK-1-4 Inhibitor I -0.038 | ibrutinib 0.485 | [1] 0.188 | ralimetinib 0.065 | [2] 0.049 | [3] -0.244 | [4] 0.031 | pinometostat 0.146 | [5] 0.026 | [6] -0.126 | [7] -0.03 | [8] 0.079 | [9] 0.02 | Nexturastat A 0.125 | vemurafenib -0.013 | [10] -0.007 | [11] 0.032 | givinostat 0.021 | barasertib 0.262

NIBAN2 (UniProt Q96TA1)
inactive: IRAK-1-4 Inhibitor I 0.026 | ibrutinib -0.02 | [1] -0.12 | ralimetinib -0.022 | [2] -0.048 | [3] 0.043 | [4] -0.009 | pinometostat 0.003 | [12] -0.005 | [5] 0.005 | [6] -0.025 | [7] -0.009 | [8] 0.018 | [9] -0.018 | Nexturastat A -0.021 | vemurafenib 0.014 | [10] 0.025 | [11] 0.019 | givinostat 0.016 | barasertib 0.018

NOP58 (UniProt Q9Y2X3)
inactive: IRAK-1-4 Inhibitor I -0.06 | ibrutinib 0.039 | [1] -0.117 | ralimetinib -0.008 | [2] 0.06 | [3] 0.052 | [4] 0.117 | pinometostat 0.128 | [5] -0.029 | [6] -0.055 | [7] -0.012 | [8] -0.058 | [9] -0.073 | Nexturastat A 0.161 | vemurafenib 0.046 | [10] 0.041 | [11] 0.081 | givinostat 0.072 | barasertib -0.075

NEK9 (UniProt Q8TD19)
inactive: IRAK-1-4 Inhibitor I 0.003 | ibrutinib 0.006 | [1] -0.046 | ralimetinib -0.028 | [2] -0.059 | [3] -0.074 | [4] 0.008 | pinometostat 0.004 | [12] -0.009 | [5] -0.035 | [6] -0.003 | [7] 0.037 | [8] -0.01 | [9] -0.012 | Nexturastat A 0.005 | vemurafenib -0.026 | [10] 0.031 | [11] 0.029 | givinostat 0.013 | barasertib 0.039

NEMP1 (UniProt O14524)
active: [3] -0.508
inactive: IRAK-1-4 Inhibitor I 0.003 | ibrutinib -0.01 | [1] -0.081 | ralimetinib -0.03 | [2] -0.023 | [4] 0.08 | pinometostat 0.009 | [5] -0.119 | [6] -0.051 | [7] 0.037 | [8] 0.031 | [9] -0.022 | Nexturastat A -0.057 | vemurafenib -0.084 | [10] -0.041 | [11] -0.001 | givinostat -0.061 | barasertib -0.034

2 consecutive records already listed, for reference:
NES (UniProt P48681)
inactive: IRAK-1-4 Inhibitor I -0.038 | ibrutinib 0.485 | [1] 0.188 | ralimetinib 0.065 | [2] 0.049 | [3] -0.244 | [4] 0.031 | pinometostat 0.146 | [5] 0.026 | [6] -0.126 | [7] -0.03 | [8] 0.079 | [9] 0.02 | Nexturastat A 0.125 | vemurafenib -0.013 | [10] -0.007 | [11] 0.032 | givinostat 0.021 | barasertib 0.262

NIBAN2 (UniProt Q96TA1)
inactive: IRAK-1-4 Inhibitor I 0.026 | ibrutinib -0.02 | [1] -0.12 | ralimetinib -0.022 | [2] -0.048 | [3] 0.043 | [4] -0.009 | pinometostat 0.003 | [12] -0.005 | [5] 0.005 | [6] -0.025 | [7] -0.009 | [8] 0.018 | [9] -0.018 | Nexturastat A -0.021 | vemurafenib 0.014 | [10] 0.025 | [11] 0.019 | givinostat 0.016 | barasertib 0.018

The results go on:

NIFK (UniProt Q9BYG3)
inactive: IRAK-1-4 Inhibitor I -0.044 | ibrutinib -0.007 | [1] 0.197 | ralimetinib 0.094 | [2] 0.051 | [3] 0.172 | [4] 0.097 | pinometostat 0.267 | [12] -0.141 | [5] -0.114 | [6] 0.003 | [7] 0.021 | [8] -0.171 | [9] -0.122 | Nexturastat A 0.305 | vemurafenib 0.026 | [10] 0 | [11] 0.11 | givinostat 0.177 | barasertib 0.039

NOB1 (UniProt Q9ULX3)
active: ralimetinib 0.288
inactive: IRAK-1-4 Inhibitor I -0.062 | ibrutinib -0.025 | [1] -0.083 | [2] -0.033 | [3] -0.15 | [4] 0.053 | pinometostat 0.068 | [5] -0.031 | [6] 0.039 | [7] 0.047 | [8] 0.012 | [9] 0.027 | Nexturastat A 0.034 | vemurafenib 0.055 | [10] 0.031 | [11] 0.182 | givinostat 0.055 | barasertib 0.041

NRDC isoform 2 (UniProt O43847)
inactive: IRAK-1-4 Inhibitor I 0.003 | ibrutinib -0.033 | [1] -0.026 | ralimetinib 0.011 | [2] -0.04 | [3] 0.053 | [4] 0.029 | pinometostat 0.015 | [5] 0.037 | [6] 0.001 | [7] -0.053 | [8] 0.01 | [9] 0.03 | Nexturastat A 0 | vemurafenib 0.047 | [10] 0.051 | [11] 0.021 | givinostat 0.017 | barasertib 0.037
